For the assay, the target named is His6-tagged hFLNc d18-21 (FLNc d18-21-His-EEF) (human) (UniProt Q14315). Put plainly: affinity purification with mass spectrometry; His6-tagged hFLNc d18-21 or hFLNc d1-3 (control) on Ni2+-NTA agarose beads, incubated with C2 myotube lysate in co-IP buffer (25 mM Tris, 150 mM NaCl, 0.5% sodium deoxycholate, 1% NP-40, 10% glycerol, 2 mM EDTA, pH 8.0) for 1 h at 10 °C; eluates by …; d18-21 against d1-3, n = 5; only the target purified.

The chains behind the UniProt entries cited, without tags or fusion partners. Where a name states a change or a piece, a line headed by the entry shows the natural chain unless it says otherwise.
UniProt Q14315: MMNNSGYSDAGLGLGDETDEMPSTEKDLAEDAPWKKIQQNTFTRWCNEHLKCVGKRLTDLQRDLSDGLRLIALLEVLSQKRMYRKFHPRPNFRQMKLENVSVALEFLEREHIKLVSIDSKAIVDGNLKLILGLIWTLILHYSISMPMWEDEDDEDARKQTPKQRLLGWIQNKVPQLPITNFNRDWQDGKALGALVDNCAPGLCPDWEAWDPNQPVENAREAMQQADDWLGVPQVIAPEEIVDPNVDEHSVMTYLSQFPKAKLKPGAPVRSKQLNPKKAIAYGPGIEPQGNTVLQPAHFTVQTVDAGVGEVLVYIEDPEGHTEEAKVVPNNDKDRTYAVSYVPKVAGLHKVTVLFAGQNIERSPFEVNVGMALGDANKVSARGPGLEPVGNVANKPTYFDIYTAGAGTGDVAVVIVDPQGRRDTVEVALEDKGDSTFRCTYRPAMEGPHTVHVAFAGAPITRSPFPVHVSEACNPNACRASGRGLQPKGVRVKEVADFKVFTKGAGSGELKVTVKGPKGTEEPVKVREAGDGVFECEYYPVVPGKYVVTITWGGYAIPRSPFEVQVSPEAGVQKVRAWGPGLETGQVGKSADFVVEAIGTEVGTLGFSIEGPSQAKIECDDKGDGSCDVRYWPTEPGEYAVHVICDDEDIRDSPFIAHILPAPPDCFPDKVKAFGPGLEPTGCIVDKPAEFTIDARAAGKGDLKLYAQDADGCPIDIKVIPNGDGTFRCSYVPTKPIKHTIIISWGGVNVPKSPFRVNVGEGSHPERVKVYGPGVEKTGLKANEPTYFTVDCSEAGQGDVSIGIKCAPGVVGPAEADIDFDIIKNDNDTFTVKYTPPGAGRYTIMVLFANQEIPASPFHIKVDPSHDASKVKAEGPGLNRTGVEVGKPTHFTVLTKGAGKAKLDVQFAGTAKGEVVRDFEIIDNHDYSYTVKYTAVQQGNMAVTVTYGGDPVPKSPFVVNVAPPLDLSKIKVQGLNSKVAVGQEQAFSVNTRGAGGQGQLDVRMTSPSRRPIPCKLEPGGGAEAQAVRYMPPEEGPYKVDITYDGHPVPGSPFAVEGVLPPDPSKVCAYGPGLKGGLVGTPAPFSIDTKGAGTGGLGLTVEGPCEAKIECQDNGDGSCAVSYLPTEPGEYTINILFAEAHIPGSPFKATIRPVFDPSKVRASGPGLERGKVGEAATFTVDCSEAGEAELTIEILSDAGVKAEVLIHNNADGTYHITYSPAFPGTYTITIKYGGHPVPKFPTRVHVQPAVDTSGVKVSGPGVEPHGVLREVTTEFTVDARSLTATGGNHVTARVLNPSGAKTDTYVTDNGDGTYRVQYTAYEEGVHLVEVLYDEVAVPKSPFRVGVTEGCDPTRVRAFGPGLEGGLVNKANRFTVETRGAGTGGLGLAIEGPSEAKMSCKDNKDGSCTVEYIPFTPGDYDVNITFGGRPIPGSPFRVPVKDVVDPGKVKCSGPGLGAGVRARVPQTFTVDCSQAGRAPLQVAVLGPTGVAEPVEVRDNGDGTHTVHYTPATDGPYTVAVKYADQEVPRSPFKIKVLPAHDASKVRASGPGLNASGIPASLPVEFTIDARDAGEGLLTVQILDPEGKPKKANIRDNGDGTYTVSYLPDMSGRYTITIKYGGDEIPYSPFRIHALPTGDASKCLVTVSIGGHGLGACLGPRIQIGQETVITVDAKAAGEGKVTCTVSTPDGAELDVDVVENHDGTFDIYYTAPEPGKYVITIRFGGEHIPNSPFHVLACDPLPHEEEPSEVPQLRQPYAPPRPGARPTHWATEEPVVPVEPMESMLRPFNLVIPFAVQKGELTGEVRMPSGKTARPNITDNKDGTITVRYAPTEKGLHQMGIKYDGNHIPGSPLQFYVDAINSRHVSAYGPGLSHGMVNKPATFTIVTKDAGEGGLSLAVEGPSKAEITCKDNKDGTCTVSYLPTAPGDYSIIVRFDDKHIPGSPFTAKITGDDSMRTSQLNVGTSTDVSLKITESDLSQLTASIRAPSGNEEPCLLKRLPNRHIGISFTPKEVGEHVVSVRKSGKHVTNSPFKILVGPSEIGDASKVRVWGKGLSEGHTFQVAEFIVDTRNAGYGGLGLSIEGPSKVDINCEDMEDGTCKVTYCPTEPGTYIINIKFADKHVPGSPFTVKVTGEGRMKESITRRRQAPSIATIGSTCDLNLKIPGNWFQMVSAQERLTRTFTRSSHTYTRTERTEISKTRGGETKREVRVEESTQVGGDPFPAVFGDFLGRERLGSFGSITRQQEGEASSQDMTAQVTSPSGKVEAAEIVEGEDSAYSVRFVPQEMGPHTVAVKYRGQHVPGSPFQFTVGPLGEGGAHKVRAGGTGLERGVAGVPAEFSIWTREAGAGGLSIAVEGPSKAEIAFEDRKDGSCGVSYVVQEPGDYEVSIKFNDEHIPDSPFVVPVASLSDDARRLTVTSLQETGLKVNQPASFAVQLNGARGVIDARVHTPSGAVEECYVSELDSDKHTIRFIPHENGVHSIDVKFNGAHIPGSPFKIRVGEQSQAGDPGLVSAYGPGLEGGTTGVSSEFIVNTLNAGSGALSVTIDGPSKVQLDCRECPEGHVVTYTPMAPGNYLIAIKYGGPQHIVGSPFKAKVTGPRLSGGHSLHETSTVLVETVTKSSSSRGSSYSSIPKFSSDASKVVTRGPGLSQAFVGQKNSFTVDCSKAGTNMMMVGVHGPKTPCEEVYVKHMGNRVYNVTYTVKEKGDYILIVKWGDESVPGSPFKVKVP
UniProt P63087: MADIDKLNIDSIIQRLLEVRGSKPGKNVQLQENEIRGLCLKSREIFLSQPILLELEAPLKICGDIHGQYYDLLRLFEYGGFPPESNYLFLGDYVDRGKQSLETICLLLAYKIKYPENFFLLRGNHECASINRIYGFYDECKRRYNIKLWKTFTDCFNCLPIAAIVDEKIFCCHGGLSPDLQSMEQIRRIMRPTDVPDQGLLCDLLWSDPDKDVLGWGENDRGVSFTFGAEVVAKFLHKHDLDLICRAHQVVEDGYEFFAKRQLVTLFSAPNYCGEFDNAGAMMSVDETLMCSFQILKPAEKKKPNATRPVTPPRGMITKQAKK
UniProt Q69Z38: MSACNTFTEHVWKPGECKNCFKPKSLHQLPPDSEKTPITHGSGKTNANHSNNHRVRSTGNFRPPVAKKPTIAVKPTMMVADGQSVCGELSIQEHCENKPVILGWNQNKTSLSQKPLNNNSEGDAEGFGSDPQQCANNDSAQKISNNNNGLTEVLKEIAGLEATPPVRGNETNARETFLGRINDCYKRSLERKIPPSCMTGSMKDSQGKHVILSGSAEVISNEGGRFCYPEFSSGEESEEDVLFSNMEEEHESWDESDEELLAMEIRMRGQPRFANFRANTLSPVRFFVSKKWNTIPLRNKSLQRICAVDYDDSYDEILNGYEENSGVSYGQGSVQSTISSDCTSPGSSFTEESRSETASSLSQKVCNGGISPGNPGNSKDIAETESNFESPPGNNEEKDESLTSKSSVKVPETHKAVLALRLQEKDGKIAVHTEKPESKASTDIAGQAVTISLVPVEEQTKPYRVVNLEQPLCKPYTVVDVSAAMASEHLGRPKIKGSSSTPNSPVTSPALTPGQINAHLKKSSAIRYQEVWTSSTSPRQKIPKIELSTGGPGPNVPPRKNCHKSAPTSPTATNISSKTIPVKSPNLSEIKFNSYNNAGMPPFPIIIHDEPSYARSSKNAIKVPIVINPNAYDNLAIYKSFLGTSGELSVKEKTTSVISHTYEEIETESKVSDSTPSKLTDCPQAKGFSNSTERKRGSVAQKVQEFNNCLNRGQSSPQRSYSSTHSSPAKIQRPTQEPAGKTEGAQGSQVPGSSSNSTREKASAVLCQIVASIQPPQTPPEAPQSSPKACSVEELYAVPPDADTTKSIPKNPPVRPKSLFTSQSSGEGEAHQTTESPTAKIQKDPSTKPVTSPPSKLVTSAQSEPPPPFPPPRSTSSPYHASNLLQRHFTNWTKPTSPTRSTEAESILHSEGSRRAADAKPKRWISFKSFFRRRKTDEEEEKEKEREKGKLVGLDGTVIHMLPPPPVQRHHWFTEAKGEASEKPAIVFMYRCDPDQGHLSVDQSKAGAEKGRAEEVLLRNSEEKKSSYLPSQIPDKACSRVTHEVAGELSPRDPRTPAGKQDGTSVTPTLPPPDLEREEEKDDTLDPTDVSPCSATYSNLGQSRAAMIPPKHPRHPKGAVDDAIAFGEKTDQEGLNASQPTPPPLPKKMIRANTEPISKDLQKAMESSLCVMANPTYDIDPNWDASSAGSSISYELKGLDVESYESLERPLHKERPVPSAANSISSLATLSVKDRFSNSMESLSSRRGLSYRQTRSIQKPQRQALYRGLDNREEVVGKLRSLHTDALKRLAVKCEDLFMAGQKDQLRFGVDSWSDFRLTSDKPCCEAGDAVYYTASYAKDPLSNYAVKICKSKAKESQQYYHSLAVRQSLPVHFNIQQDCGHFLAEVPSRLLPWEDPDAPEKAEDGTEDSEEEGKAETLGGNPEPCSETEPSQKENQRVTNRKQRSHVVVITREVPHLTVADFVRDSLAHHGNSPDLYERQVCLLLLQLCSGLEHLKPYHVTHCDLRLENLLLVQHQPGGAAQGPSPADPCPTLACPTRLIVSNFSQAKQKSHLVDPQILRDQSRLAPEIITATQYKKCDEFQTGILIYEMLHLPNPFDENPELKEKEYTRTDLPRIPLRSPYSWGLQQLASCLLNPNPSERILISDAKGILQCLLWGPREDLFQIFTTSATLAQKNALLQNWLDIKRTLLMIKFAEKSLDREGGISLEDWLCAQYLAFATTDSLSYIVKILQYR
UniProt Q9JLV1: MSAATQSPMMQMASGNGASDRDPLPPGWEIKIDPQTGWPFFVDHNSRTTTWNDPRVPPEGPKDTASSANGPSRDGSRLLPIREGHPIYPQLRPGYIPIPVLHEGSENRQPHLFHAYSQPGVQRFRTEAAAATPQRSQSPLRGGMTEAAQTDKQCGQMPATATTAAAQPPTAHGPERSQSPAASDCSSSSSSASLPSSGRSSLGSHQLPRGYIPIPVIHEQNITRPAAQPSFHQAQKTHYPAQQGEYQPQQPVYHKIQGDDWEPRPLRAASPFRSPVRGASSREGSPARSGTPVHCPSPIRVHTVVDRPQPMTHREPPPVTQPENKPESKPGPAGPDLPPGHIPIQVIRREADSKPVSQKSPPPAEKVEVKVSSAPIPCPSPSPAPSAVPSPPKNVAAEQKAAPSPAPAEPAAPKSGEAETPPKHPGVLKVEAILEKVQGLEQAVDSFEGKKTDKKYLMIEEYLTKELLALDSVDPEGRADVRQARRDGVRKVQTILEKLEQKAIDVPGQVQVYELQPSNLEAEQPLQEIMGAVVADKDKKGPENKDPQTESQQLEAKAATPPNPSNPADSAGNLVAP
UniProt P62137: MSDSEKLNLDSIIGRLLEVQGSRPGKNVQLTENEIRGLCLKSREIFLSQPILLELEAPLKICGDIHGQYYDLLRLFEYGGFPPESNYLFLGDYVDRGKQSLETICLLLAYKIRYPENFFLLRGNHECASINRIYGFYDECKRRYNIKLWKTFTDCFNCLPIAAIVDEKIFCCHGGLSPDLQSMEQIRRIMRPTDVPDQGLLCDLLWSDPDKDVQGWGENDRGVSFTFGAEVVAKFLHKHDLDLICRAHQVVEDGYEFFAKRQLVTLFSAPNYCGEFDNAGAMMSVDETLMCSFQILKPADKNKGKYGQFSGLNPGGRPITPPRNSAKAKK
UniProt P62141: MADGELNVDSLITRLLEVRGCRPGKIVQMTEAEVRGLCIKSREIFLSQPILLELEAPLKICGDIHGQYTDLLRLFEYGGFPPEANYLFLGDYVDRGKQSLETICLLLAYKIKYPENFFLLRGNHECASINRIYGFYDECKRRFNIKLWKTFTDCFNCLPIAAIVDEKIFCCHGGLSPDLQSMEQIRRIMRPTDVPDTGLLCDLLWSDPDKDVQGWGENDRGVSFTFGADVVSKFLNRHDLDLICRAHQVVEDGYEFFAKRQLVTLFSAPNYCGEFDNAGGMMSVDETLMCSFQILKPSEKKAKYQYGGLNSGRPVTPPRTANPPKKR

No constants are given. Whether binding was seen depends on the method and setting. Binding seen in cells or lysates may run through a third protein. A yes stands for co-enrichment or nearness to the bait. Other partners may have been found.

As for “PP1 catalytic subunit PPP1CC, endogenous in C2 myotubes (from UniProt P63087 1-323) (enzyme)”, the binding result is “binds”.
With “inactive tyrosine-protein kinase (PEAK1), endogenous in C2 myotubes (from UniProt Q69Z38 1-1735)” the entry was “binds”.
Then “BAG3, endogenous in C2 myotubes (from UniProt Q9JLV1 1-577)”, with “binds”; and “partitioning defective 3 homolog (PARD3), endogenous in C2 myotubes (from UniProt Q99NH2 1-1333)”, with “binds”.
Then “PP1 catalytic subunit PPP1CA, endogenous in C2 myotubes (from UniProt P62137 1-330) (enzyme)”, with “binds”; and “PP1 catalytic subunit PPP1CB, endogenous in C2 myotubes (from UniProt P62141 1-327) (enzyme)”, with “binds”.

B1: ATP-dependent 6-phosphofructokinase, muscle type (PFKM), endogenous in C2 myotubes (protein, UniProt P47857 1-780)
chain: MTHEEHHAAKTLGIGKAIAVLTSGGDAQGMNAAVRAVVRVGIFTGARVFFVHEGYQGLVDGGEHIREATWESVSMMLQLGGTVIGSARCKDFREREGRLRAAHNLVKRGITNLCVIGGDGSLTGADTFRSEWSDLLNDLQKDGKITAEEATKSSYLNIVGLVGSIDNDFCGTDMTIGTDSALHRIVEIVDAITTTAQSHQRTFVLEVMGRHCGYLALVTSLSCGADWVFIPECPPDDDWEEHLCRRLSETRTRGSRLNIIIVAEGAIDKNGKPITSEDIKNLVVKRLGYDTRVTVLGHVQRGGTPSAFDRILGSRMGVEAVMALLEGTPDTPACVVSLSGNQAVRLPLMECVQVTKDVTKAMDEKRFDEAIKLRGRSFMNNWEVYKLLAHVRPPVSKGGLHTVAVMNVGAPAAGMNAAVRSTVRIGLIQGNRVLVVHDGFEGLAKGQIEEAGWSYVGGWTGQGGSKLGTKRTLPKKNLEQISANITKFNIQGLVIIGGFEAYTGGLELMEGRKQFDELCIPFVVIPATVSNNVPGSDFSIGADTALNTICTTCDRIKQSAAGTKRRVFIIETMGGYCGYLATMAGLAAGADAAYIFEEPFTIRDLQVNVEHLVQKMKTTVKRGLVLRNEKCNENYTTDFIFNLYSEEGKGIFDSRKNVLGHMQQGGSPTPFDRNFATKMGAKAMNWMSGKIKESYRNGRIFANTPDSGCVLGMRKRALVFQPVTELKDQTDFEHRIPKEQWWLKLRPILKILAKYEIDLDTSDHAHLEHISRKRSGEAAV
For the molecule B1, the binding result was “binds”.

B2: HSPB8, endogenous in C2 myotubes (protein, UniProt Q9JK92 1-196)
chain: MADGQLPFPCSYPSRLRRDPFRDSPLSSRLLDDGFGMDPFPDDLTAPWPEWALPRLSSAWPGTLRSGMVPRGPPATARFGVPAEGRSPPPFPGEPWKVCVNVHSFKPEELMVKTKDGYVEVSGKHEEKQQEGGIVSKNFTKKIQLPAEVDPATVFASLSPEGLLIIEAPQVPPYSPFGESSFNNELPQDNQEVTCS
In the case of B2, the binding result is “binds”.

B3: filamin-A-interacting protein 1 (FILIP1), endogenous in C2 myotubes (protein, UniProt Q9CS72 1-1214)
chain: MRSRNQGGESSSNGHVSCPKPSIISSDGGKGPSEDAKKNKANRKGEDDVMASGTVKRHLKPSGESEKKTKKPLELSKEDLIQLLSIMEGELQAREDVIHMLKTEKTKPEVLEAHYGSAEPEKVLRVLHRDAILAQEKSIGEDVYEKPISELDRLEEKQKETYRRMLEQLLLAEKCHRRTVYELENEKHKHTDYMNKSDDFTNLLEQERERLKKLLEQEKAYQARKEKENAKRLNKLRDELVKLKSFALMLVDERQMHIEQLGLQSQKVQDLTQKLREEEEKLKAITYKSKEDRQKLLKLEVDFEHKASRFSQEHEEMNAKLANQESHNRQLRLKLVGLSQRIEELEETNKSLQKAEEELQELRDKIAKGECGNSSLMAEVESLRKRVLEMEGKDEEITKTEAQCRELKKKLQEEEHHSKELRLEVEKLQKRMSELEKLEEAFSRSKSECTQLHLNLEKEKNLTKDLLNELEVVKSRVKELECSESRLEKVELSLKDDLTKLKSFTVMLVDERKNMMEKIKQEERKVDGLNKNFKVEQGKVMDVTEKLIEESKKLLKLKSEMEEKVYSLTKERDELMGKLRSEEERSCELSCSVDLLKKRLDGIEEVEREINRGRLCKGSEFTCPEDNKIRELTLEIERLKKRLQQLEVVEGDLMKTEDEYDQLEQKFRTEQDKANFLSQQLEEIKHQMAKNKAIEKGEAVSQEAELRHRFRMEEAKSRDLQAEVQALKEKIHELMNKEDQLSQLQVDYSVLQQRFMEEETKNKNMGREVLNLTKELELSKRYSRALRPSGNGRRMVDVPVASTGVQTEAVCGDAAEEETPAVFIRKSFQEENHIMSNLRQVGLKKPMERSSVLDRYPPAANELTMRKSWIPWMRKRENGPSAPQEKGPRPNQGTGHPGELVLAPKQGQPLHIRVTPDHENSTATLEITSPTSEEFFSSTTVIPTLGNQKPRITIIPSPNVMSQKPKSADPTLGPERAMSPVTITTISREKSPEGGRGAFADRPASPIQIMTVSTSAAPPEIAVSPDSQEVPMGRTILKVTPEKQTVPTPMRKYNANANIITTEDNKIHIHLGSQFKRSPGPAAAEGVSPVITVRPVNVTAEKEVSTGTVLRSPRNHLSSRPGANKVTSTITITPVTTSSTRGTQSVSGQDGSSQRPTPTRIPMSKGMKAGKPVVAAPGAGNLTKFQPRAETQSMKIELKKSAASSTASLGGGKG
As to B3, the binding result is recorded as “binds”.

These data come from PMC11550807.
